Results from the supplement of paper PMC12819154, “High-throughput peptide-centric local stability assay extends protein–ligand identification to membrane proteins, tissues and bacteria” (Nature Structural & Molecular Biology, 2025).
The other results are listed elsewhere or left out. Most entries show no effect beyond the scatter of the controls.

Chains of the proteins cited; added tags and fusions are not shown. Lines headed by an entry give the natural chain unless they say otherwise; changes in a name come on top.
UniProt P15374: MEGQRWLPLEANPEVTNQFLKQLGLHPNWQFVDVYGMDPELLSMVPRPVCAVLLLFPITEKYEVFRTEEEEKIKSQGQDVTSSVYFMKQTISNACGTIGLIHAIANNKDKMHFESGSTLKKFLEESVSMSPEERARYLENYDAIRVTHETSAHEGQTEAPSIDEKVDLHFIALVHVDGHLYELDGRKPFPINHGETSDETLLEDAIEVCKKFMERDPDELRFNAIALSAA
UniProt P17081: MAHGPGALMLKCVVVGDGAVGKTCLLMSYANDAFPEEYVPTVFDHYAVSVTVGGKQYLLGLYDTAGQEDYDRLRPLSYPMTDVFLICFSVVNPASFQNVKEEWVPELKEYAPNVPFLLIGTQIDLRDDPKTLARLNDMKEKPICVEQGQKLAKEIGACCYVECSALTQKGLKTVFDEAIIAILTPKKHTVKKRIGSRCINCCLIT
UniProt P16949: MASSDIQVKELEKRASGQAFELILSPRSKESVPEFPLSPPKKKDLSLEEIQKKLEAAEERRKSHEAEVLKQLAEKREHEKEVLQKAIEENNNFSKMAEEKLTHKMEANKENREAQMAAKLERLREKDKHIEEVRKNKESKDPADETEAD
UniProt P16415: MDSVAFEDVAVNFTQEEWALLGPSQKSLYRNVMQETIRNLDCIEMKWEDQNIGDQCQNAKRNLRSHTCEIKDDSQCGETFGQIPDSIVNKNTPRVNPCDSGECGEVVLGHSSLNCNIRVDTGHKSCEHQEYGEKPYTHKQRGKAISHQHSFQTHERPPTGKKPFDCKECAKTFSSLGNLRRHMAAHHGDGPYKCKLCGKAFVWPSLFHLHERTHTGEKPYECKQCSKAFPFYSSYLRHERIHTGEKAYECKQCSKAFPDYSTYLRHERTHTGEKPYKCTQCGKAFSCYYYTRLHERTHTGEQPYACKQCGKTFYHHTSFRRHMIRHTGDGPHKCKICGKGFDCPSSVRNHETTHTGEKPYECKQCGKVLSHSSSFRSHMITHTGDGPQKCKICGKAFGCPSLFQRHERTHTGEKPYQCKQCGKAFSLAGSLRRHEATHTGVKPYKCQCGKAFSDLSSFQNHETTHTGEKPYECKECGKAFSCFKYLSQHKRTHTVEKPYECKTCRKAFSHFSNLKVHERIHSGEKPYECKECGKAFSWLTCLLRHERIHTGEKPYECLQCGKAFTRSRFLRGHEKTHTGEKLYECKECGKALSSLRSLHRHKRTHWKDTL
UniProt P28340: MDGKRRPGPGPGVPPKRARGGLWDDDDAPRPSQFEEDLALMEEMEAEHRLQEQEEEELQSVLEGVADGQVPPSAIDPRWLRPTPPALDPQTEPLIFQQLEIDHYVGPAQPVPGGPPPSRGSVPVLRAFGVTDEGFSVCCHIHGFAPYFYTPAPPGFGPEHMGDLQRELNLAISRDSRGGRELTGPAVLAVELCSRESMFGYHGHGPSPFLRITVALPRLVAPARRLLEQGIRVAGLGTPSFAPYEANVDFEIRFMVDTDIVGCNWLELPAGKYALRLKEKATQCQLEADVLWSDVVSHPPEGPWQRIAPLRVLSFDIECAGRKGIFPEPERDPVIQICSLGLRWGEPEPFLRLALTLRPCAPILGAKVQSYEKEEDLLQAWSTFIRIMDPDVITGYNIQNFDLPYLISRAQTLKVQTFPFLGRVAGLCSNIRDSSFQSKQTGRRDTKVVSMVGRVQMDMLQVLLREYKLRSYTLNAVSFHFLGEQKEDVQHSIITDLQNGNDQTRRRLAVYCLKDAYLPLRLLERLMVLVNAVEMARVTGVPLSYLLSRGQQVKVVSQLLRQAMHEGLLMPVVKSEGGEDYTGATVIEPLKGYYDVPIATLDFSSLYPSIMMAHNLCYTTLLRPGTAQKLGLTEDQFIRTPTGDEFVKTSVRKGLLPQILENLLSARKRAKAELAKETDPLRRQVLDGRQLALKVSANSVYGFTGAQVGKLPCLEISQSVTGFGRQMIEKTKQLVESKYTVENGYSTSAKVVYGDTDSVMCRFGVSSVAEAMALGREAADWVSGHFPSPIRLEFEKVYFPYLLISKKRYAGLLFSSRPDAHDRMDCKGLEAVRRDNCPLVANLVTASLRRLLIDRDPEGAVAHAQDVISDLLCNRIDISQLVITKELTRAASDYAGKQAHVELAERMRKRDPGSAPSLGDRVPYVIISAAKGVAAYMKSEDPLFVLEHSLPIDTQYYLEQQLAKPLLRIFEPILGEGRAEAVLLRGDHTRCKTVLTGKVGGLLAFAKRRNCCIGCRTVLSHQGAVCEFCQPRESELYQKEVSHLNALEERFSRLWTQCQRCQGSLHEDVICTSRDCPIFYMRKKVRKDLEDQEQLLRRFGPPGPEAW
UniProt P23582: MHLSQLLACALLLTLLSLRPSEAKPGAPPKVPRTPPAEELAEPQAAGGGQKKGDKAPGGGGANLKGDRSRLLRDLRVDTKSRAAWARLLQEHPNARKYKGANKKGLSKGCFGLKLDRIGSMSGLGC
UniProt P20338: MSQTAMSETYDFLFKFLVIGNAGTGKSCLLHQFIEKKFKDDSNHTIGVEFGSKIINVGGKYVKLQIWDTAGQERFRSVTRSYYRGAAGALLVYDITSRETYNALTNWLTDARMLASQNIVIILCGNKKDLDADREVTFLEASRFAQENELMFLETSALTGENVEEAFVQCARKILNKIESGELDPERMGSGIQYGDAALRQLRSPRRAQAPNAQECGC
UniProt P16403, whole entry: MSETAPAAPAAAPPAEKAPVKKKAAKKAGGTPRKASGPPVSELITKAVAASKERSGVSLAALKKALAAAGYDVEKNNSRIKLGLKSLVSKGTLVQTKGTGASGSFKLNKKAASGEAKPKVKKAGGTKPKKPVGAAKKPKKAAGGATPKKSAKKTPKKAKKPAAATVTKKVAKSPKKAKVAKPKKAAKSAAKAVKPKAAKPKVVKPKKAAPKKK
UniProt P22670: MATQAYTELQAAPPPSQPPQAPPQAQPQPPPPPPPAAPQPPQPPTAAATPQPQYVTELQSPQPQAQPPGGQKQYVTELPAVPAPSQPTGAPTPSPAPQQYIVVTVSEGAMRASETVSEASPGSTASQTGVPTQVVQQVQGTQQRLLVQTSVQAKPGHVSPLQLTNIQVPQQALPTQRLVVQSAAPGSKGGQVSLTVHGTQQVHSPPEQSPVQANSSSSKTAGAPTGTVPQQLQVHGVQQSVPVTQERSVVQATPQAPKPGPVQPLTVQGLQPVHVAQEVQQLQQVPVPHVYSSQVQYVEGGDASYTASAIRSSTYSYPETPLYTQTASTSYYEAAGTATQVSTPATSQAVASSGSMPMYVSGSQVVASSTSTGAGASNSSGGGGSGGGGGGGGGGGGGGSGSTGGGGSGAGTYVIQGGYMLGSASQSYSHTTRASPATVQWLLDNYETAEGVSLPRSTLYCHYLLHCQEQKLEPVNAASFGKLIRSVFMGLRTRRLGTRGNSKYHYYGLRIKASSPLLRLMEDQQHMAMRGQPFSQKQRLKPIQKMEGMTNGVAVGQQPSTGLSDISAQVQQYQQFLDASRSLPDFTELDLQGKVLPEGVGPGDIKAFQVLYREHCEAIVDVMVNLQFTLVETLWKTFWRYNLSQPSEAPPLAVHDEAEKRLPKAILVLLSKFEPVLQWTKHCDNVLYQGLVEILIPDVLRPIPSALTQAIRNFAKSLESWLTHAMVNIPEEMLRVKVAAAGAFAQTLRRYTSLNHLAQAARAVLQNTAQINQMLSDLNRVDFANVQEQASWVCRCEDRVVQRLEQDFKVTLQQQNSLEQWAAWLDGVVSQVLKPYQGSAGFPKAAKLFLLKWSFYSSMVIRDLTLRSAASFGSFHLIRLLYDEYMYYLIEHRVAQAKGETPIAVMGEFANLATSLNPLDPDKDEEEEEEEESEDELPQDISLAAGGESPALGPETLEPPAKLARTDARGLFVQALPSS
UniProt P18085: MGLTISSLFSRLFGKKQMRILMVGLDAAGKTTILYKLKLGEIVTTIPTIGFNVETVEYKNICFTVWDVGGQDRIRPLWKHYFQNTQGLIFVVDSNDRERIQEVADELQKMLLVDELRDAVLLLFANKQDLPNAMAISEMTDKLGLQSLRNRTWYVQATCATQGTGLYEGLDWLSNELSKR
UniProt P18846: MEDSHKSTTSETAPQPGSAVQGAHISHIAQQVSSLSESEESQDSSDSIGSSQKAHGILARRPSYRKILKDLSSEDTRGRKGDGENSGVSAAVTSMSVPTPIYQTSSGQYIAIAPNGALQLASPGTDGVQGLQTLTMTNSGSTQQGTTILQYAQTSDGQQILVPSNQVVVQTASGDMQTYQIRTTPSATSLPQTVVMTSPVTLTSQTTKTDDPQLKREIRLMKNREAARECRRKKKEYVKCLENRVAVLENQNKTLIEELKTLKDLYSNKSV
UniProt P22695: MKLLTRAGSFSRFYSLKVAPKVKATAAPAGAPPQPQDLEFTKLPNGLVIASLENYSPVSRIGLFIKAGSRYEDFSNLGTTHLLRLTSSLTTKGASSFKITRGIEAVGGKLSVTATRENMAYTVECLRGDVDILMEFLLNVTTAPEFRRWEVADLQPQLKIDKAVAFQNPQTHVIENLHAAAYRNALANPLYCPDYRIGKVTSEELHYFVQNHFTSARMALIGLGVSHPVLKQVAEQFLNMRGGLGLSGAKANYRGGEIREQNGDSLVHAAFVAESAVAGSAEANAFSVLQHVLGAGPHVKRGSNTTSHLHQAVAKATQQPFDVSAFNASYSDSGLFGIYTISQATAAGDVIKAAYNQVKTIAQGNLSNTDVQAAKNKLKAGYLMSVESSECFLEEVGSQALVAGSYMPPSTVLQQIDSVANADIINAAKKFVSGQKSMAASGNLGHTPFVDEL
UniProt P23368: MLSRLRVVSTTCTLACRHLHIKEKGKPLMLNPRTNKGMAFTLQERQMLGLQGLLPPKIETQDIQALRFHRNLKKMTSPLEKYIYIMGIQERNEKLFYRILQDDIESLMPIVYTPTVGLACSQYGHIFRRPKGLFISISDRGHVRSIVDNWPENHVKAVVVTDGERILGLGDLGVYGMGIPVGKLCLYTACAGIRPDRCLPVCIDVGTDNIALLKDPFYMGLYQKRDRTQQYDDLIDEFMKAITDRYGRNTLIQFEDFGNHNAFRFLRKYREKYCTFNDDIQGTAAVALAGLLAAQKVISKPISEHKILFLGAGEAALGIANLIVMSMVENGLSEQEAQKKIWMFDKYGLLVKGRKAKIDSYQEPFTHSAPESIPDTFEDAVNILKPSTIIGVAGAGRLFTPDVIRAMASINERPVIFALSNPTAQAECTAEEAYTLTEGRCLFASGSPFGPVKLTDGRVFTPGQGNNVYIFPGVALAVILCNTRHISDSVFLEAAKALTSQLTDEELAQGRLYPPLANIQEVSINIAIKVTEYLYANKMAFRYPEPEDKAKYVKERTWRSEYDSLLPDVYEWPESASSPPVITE
UniProt P17655: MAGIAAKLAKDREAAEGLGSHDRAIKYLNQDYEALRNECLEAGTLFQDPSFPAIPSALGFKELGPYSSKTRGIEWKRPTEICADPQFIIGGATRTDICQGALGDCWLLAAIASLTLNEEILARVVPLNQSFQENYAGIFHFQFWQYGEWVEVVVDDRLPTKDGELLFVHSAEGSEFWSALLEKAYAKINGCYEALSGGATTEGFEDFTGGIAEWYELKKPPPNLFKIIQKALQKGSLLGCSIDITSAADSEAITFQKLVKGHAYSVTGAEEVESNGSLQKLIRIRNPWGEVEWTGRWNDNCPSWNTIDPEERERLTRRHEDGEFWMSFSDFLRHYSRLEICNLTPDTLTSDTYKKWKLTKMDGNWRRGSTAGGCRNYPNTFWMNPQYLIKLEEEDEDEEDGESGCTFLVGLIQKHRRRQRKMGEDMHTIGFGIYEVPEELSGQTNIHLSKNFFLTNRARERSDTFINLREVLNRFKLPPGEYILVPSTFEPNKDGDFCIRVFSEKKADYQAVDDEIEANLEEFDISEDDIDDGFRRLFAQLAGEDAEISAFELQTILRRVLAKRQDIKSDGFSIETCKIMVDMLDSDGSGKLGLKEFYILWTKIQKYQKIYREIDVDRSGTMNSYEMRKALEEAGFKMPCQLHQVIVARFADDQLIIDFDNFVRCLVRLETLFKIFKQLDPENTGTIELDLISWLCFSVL
UniProt P17676: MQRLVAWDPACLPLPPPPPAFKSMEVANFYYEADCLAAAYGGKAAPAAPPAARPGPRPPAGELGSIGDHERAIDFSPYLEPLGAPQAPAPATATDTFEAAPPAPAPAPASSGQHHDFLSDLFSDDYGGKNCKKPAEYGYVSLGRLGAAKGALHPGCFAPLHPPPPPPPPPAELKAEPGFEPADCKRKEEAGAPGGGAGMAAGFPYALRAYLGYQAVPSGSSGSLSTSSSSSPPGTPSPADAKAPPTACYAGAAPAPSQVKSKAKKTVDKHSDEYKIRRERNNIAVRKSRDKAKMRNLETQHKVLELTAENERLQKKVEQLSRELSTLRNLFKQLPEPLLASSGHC
UniProt P23919: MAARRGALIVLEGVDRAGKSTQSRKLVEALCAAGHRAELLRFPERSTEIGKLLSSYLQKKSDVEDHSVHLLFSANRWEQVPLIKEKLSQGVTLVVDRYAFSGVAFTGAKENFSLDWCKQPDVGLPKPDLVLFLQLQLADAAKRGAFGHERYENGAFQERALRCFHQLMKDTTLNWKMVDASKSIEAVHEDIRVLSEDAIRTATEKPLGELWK

Compound: Cc1nc(Nc2ncc(C(=O)Nc3c(C)cccc3Cl)s2)cc(N2CCN(CCO)CC2)n1 [dasatinib]
Assay: log2 fold change of tryptic peptide abundance, ligand vs vehicle (limited proteolysis) (log2 ratio); higher = more trypsin-susceptible (destabilized)
Settings: ligand concentration: 5 uM; sample: K562 cleared lysate

Target “UCHL3 (peptide sequence: QTISNACGTIGLIHAIANNKDK, peptide start residue: 89) (UniProt P15374)” has a log2 fold change of 0.303.

For “RHOQ (peptide sequence: CVVVGDGAVGK, peptide start residue: 6) (UniProt P17081)”, the log2 fold change was -0.246.

Target “STMN1 (peptide sequence: ESVPEFPLSPPKKK, peptide start residue: 30) (UniProt P16949)” has a log2 fold change of -0.225.

“ETS1 (peptide sequence: VPSYDSFDSEDYPAALPNHKPK, peptide start residue: 280) (UniProt P14921)” was tested, and the log2 fold change was -0.29.

“RPS2 (peptide sequence: EWMPVTK, peptide start residue: 59) (UniProt P15880)” gave a log2 fold change of 0.0917.

“UniProt P16415 (peptide sequence: SCEHQEYGEKPYTHK, peptide start residue: 125)” gave a log2 fold change of 0.24.

“POLD1 (peptide sequence: RFGPPGPEAW, peptide start residue: 1098) (UniProt P28340)” was tested, and the log2 fold change was 0.14.

For “UniProt P23582 (peptide sequence: KGLSKGCFGLK, peptide start residue: 104)”, the log2 fold change was -0.0112.

For “EPHA1 (peptide sequence: LVKKEPR, peptide start residue: 455) (UniProt P21709)”, the log2 fold change was -0.322.

“RAB4A (peptide sequence: MGSGIQYGDAALR, peptide start residue: 188) (UniProt P20338)” was tested, and the log2 fold change was 0.0457.

For “HIST1H1C (peptide sequence: PAAATVTKK, peptide start residue: 161) (UniProt P16403)”, the log2 fold change was -0.143.

In the case of “RFX1 (peptide sequence: VAAAGAFAQTLR, peptide start residue: 738) (UniProt P22670)”, the log2 fold change is reported as -0.234.

Target “GPD1 (peptide sequence: LTEIINTQHENVK, peptide start residue: 50) (UniProt P21695)” has a log2 fold change of 0.437.

In the case of “VCL (peptide sequence: QVATALQNLQTK, peptide start residue: 465) (UniProt P18206)”, the log2 fold change is reported as 0.254.

With “ARF4 (peptide sequence: MLLVDELR, peptide start residue: 110) (UniProt P18085)” the log2 fold change was -0.182.

“TCEA1 (peptide sequence: LLDGPSTEKDLDEK, peptide start residue: 76) (UniProt P23193)” showed a log2 fold change of 0.114.

For “ATF1 (peptide sequence: TLKDLYSNK, peptide start residue: 261) (UniProt P18846)”, the log2 fold change was 0.138.

“UQCRC2 (peptide sequence: WEVADLQPQLK, peptide start residue: 149) (UniProt P22695)” showed a log2 fold change of 0.537.

Work on “ME2 (peptide sequence: LCLYTACAGIRPDR, peptide start residue: 184) (UniProt P23368)” yielded a log2 fold change of -0.646.

“ZNF24 (peptide sequence: SYSQSSNLFR, peptide start residue: 343) (UniProt P17028)” showed a log2 fold change of -0.177.

Work on “CAPN2 (peptide sequence: KALEEAGFKMPCQLHQVIVAR, peptide start residue: 629) (UniProt P17655)” yielded a log2 fold change of -0.523.

“PTPN1 (peptide sequence: ELSHEDLEPPPEHIPPPPRPPKR, peptide start residue: 293) (UniProt P18031)” showed a log2 fold change of -0.825.

With “BTF3 (peptide sequence: GGCPGGEATLSQPPPRGGTR, peptide start residue: 20) (UniProt P20290)” the log2 fold change was -0.566.

“CEBPB (peptide sequence: NLETQHK, peptide start residue: 296) (UniProt P17676)” was tested, and the log2 fold change was -0.198.

“NQO1 (peptide sequence: EGHLSPDIVAEQK, peptide start residue: 78) (UniProt P15559)” was tested, and the log2 fold change was -0.447.

With “PHKG2 (peptide sequence: NALLRDPYALR, peptide start residue: 334) (UniProt P15735)” the log2 fold change was -0.135.

For “DTYMK (peptide sequence: AELLRFPERSTEIGK, peptide start residue: 37) (UniProt P23919)”, the log2 fold change was -0.481.

“POLR2E (peptide sequence: QSLVDMAPK, peptide start residue: 116) (UniProt P19388)” gave a log2 fold change of -0.232.
